Where no unit stands, none is given here, and values compare only within one read-out.
Experiment: Plasma 13-HODE level by 13(S)-HODE ELISA kit
Design: species or system human
Conditions: for Plasma 13-HODE level: means ± sem

CCCCCC(O)/C=C/C=C\CCCCCCCC(=O)O (centres unmarked) [13-HODE, 13-hydroxyoctadeca-9Z, 11E-dienoic acid]
Plasma 13-HODE (ng/ml) (BRAT study patients with no (cardio)vascular thrombotic events in 2 years after CABG, range): 4,100-5308 ng/ml
Plasma 13-HODE (BRAT study patients, smokers with events, range): >6000 ng/mL
plasma 13-HODE levels (CABG patients <50 years of age, mean±sem): 1,811±326
Plasma 13-HODE level (CABG patients at time of surgery, females, 51-60 years): 1616 ± 290 ng/mL
Plasma 13-HODE level (CABG patients at time of surgery, females, 61-70 years): 1953 ± 401 ng/mL
Plasma 13-HODE level (CABG patients at time of surgery, females, <50 years): 1532 ± 357 ng/mL
Plasma 13-HODE level (CABG patients at time of surgery, males, 51-60 years): 1739 ± 164 ng/mL
Plasma 13-HODE level (CABG patients at time of surgery, males, 61-70 years): 2933 ± 732 ng/mL
Plasma 13-HODE level (CABG patients at time of surgery, males, <50 years): 1775 ± 205 ng/mL
Plasma 13-HODE level (CABG patients at time of surgery, males, >70 years): 3120 ± 1394 ng/mL
plasma 13-HODE levels in CABG patients relative to healthy volunteers (CABG patients versus healthy volunteers of the same age): > 10 fold
plasma 13-HODE levels (CABG patients who were smokers): > 6000 ng/mL
Plasma 13-HODE level (healthy volunteers, females, 51-60 years): 417 ± 25 ng/mL
Plasma 13-HODE level (healthy volunteers, females, 61-70 years): 523 ± 60 ng/mL
Plasma 13-HODE level (healthy volunteers, females, <50 years): 419 ± 25 ng/mL
Plasma 13-HODE level (healthy volunteers, males, 51-60 years): 553 ± 100 ng/mL
Plasma 13-HODE level (healthy volunteers, males, 61-70 years): 532 ± 50 ng/mL
Plasma 13-HODE level (healthy volunteers, males, <50 years): 441 ± 60 ng/mL
plasma 13-HODE levels (healthy volunteers, range): 214 to 670 ng/mL
plasma 13-HODE levels (patients who did not suffer an event after CABG, range): 4100 to 5308 ng/mL
